Holding throughout (conditions): 5 µM; treatment: days 7-14 after plating, readout day 21
The test system of assay [1] is hPSC-derived cortical neurons (WA09). Description: nucleus area z-score vs screen plate; higher = larger nuclei (more mature).
For assay [2] the test system is unchanged. Description: total neurite length per nucleus (MAP2) z-score; higher = more neurite growth.
For assay [3] the test system is unchanged. Description: nucleus roundness z-score vs screen plate; higher = rounder nuclei (more mature).
Assay [4] shares this test system. Description: KCl-induced FOS+/EGR-1+ double-positive nuclei fraction z-score (KCl minus unstimulated); higher = stronger activity-induced IEG response.

Where “and” joins values, the source holds several entries; their conditions need not be identical. Equal entries are not always repeated. Structures can show the parent of a compound that is named as a salt. The list shows a part of the results. Most entries show no effect beyond the scatter of the controls.

In assay [1], `O=CN1CC/C(=C/c2ccc3c(c2)OCO3)C1=O` registered a nucleus area z-score of -0.209. For the same compound, the “total neurite length per nucleus (z-score)” value in assay [2] is -0.631. Also, the nucleus roundness z-score in assay [3] was -0.697. For the same compound, the “KCl-induced FOS+/EGR-1+ double-positive nuclei fraction z-score” value in assay [4] was -0.147.
The compound `CC/C(=C(/CC)c1ccc(O)cc1)c1ccc(O)cc1` [Diethylstilbestrol] displayed a nucleus area z-score in assay [1] of -0.356. Also, the “total neurite length per nucleus (z-score)” value in assay [2] is 0.458. For the same compound, the nucleus roundness z-score in assay [3] is 1.13. The “KCl-induced FOS+/EGR-1+ double-positive nuclei fraction z-score” value in assay [4] is -0.706.
The compound `C=C1c2cccc(O)c2C(=O)C2=C(O)[C@]3(O)C(=O)C(C(N)=O)=C(O)[C@@H](N(C)C)[C@@H]3[C@@H](O)[C@H]12` [Methacycline HCl] yielded a nucleus area z-score in assay [1] of 0.732. In assay [2], the “total neurite length per nucleus (z-score)” value was -0.698. In assay [3], this compound returned a nucleus roundness z-score of -0.233. For the same compound, the “KCl-induced FOS+/EGR-1+ double-positive nuclei fraction z-score” value in assay [4] was 1.9.
Compound `CCC(=O)Nc1cccc(Oc2nc(Nc3ccc(N4CCN(C)CC4)cc3OC)ncc2Cl)c1` returned a nucleus area z-score in assay [1] of 0.916. Besides, the “total neurite length per nucleus (z-score)” value in assay [2] is -0.944. Besides, the nucleus roundness z-score in assay [3] is -0.755. Besides, the “KCl-induced FOS+/EGR-1+ double-positive nuclei fraction z-score” value in assay [4] is -0.728.
Compound `COc1cc(C(=O)NC2CCCNC2)cc(OC)c1OC` (stereo unspecified) [Troxipide] yielded a nucleus area z-score in assay [1] of -0.0436. Besides, the “total neurite length per nucleus (z-score)” value in assay [2] was found to be 0.551. Further, the nucleus roundness z-score in assay [3] turned out to be 0.229. The “KCl-induced FOS+/EGR-1+ double-positive nuclei fraction z-score” value in assay [4] was found to be 0.628.
In assay [1], `CC(C)OC(=O)OCOP(=O)(CO[C@H](C)Cn1cnc2c(N)ncnc21)OCOC(=O)OC(C)C` [Tenofovir Disoproxil Fumarate] gave a nucleus area z-score of -0.191. Further, the “total neurite length per nucleus (z-score)” value in assay [2] was determined as 0.776. The compound further registered a nucleus roundness z-score in assay [3] of -0.0656. Moreover, the “KCl-induced FOS+/EGR-1+ double-positive nuclei fraction z-score” value in assay [4] is -1.23.
Compound `CCCc1nc2c(C)cc(-c3nc4ccccc4n3C)cc2n1Cc1ccc(-c2ccccc2C(=O)O)cc1` [Telmisartan] displayed a nucleus area z-score in assay [1] of 0.827. Also, the “total neurite length per nucleus (z-score)” value in assay [2] is -1.53. The compound also displayed a nucleus roundness z-score in assay [3] of -0.608. Moreover, the “KCl-induced FOS+/EGR-1+ double-positive nuclei fraction z-score” value in assay [4] is -0.808.
Regarding `CC(=O)SCC(Cc1ccccc1)C(=O)NCC(=O)OCc1ccccc1` (stereo unspecified) [Racecadotril], the nucleus area z-score in assay [1] is -0.644. In addition, the “total neurite length per nucleus (z-score)” value in assay [2] amounted to 1.26. The nucleus roundness z-score in assay [3] is 1.15. Also, in assay [4], the “KCl-induced FOS+/EGR-1+ double-positive nuclei fraction z-score” value came out at 1.73.
Take `CN(c1ncccc1CNc1nc(Nc2ccc3c(c2)CC(=O)N3)ncc1C(F)(F)F)S(C)(=O)=O`: in assay [4], the “KCl-induced FOS+/EGR-1+ double-positive nuclei fraction z-score” value is -0.657 and -1.1 and -1.02.
In turn, `C[C@@H](N)[C@H]1CC[C@H](C(=O)Nc2ccncc2)CC1` had a nucleus area z-score in assay [1] of 2.06. Besides, the “total neurite length per nucleus (z-score)” value in assay [2] is -0.262. In assay [3], the nucleus roundness z-score amounted to 0.114. Moreover, the “KCl-induced FOS+/EGR-1+ double-positive nuclei fraction z-score” value in assay [4] was 0.0481.
For the compound `Cn1cc(-c2ccc3ncc(Cc4ccc5ncccc5c4)n3n2)cn1`, the nucleus area z-score in assay [1] came out at 0.524. The “total neurite length per nucleus (z-score)” value in assay [2] is -0.514. Besides, in assay [3], the nucleus roundness z-score was -0.877. Further, the “KCl-induced FOS+/EGR-1+ double-positive nuclei fraction z-score” value in assay [4] is -0.184.

The record behind these values is the supplement of paper PMC11348887.
